{"source": "paper PMC3119699", "about": "“Characterizing the Role of Cell-Wall β-1,3-Exoglucanase Xog1p in Candida albicans Adhesion by the Human Antimicrobial Peptide LL-37” (PLoS ONE, 2011)", "key": {"[1]": {"molecular_target": "T1, Xog1p, cell-wall β-1,3-exoglucanase of C. albicans (endogenous) (C. albicans (endogenous in SC5314)) (UniProt P29717)", "T1 sequence": "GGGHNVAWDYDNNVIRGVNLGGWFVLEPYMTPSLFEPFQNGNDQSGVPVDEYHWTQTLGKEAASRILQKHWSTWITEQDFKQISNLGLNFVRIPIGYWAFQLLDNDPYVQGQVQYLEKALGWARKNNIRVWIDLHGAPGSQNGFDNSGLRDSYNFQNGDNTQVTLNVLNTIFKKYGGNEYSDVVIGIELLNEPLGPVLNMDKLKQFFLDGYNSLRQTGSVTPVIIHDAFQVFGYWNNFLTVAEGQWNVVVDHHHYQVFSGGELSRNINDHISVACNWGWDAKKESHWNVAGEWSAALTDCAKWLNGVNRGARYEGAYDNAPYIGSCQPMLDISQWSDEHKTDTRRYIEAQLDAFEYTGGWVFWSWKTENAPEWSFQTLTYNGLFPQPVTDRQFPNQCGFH", "assay": "flow cytometry on cells; C. albicans wild type, XOG1-deletion and XOG1-reintegrated strains (6×10^6 cells) with 10 µg BA-LL37 in 750 µl PBS, 4°C overnight; SA-DTAF; normalised to the wild type; only the binder purified"}, "[2]": {"molecular_target": "T1, Xog1p, cell-wall β-1,3-exoglucanase of C. albicans (endogenous) (C. albicans (endogenous in SC5314))", "assay": "far-Western, overlay or dot blot; cell-wall extracts separated by SDS-PAGE, transferred to PVDF, blocked with 3% non-fat milk; probe BA-LL37 (1.1 µM) in 0.1% PBST; HRP-conjugated streptavidin, ECL; only the binder purified"}}, "note": "No constants are given. Whether binding was seen depends on the method and setting. Some binding calls cover weakened binding; strength is not graded here. Tags and fused reporters may be left off the sequences shown."}
{"binder": "LLGDFFRKSKEKIGKEFKRIVQRIKDFLRNLVPRTES (biotinylated (site not stated))", "note": "[biotinylated LL-37 (BA-LL37)]", "values": [{"measurement": "binding", "setting": "[1]", "value": "binds"}, {"measurement": "binding", "setting": "[2]", "value": "binds"}]}
